Results as given in PMC12372762.
These are yes or no findings as the source states them, for the method shown. Binding seen in cells or lysates may run through a third protein. Binding calls can cover weak binding; strength is not graded here.

Amino acid sequences for entries named in this document (tags omitted). A change or cut given only in a name is not applied to a line headed by its entry.
UniProt P01139: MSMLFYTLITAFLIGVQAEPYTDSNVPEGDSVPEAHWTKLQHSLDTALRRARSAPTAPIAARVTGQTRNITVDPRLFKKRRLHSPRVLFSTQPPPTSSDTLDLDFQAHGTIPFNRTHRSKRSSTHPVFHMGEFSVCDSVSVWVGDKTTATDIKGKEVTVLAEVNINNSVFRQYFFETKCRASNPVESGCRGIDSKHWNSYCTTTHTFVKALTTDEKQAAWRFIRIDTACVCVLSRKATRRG
UniProt Q01147: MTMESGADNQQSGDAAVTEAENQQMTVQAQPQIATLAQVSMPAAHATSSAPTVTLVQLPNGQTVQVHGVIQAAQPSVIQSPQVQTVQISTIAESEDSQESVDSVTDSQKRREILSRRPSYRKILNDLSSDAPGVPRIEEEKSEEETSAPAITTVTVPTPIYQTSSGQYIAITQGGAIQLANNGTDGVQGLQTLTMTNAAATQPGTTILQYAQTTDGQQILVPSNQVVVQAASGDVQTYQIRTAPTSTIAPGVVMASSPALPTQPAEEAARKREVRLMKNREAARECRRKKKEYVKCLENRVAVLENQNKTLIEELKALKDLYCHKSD

Target: Nerve growth factor (mouse (endogenous in BV2)) (UniProt P01139)
Assay: co-IP; cell lysate supernatant incubated with IgG (control) or NGF antibody at 4°C overnight, protein A/G magnetic beads, washing, elution in a low-pH buffer

- binding: binds
Substance: cAMP response element-binding protein (from UniProt Q01147 1-327)
